In PubChem BioAssay AID652054 (National Center for Advancing Translational Sciences (NCATS), 2013):
The whole screen tested about 360,000 compounds, of which about 9,100 (2.5%) were called active. The inconclusive results got no clear call from the source; some entries with a clear call stand among them for comparison. Cut-off read from the data, not from the text of the source: active = max response below about -50%; inconclusive = no clear call, values can overlap the other calls; inactive = above that.

Protein sequences, listed by entry. Tags and fused reporters are not part of them.
UniProt P35462, whole entry, looked up: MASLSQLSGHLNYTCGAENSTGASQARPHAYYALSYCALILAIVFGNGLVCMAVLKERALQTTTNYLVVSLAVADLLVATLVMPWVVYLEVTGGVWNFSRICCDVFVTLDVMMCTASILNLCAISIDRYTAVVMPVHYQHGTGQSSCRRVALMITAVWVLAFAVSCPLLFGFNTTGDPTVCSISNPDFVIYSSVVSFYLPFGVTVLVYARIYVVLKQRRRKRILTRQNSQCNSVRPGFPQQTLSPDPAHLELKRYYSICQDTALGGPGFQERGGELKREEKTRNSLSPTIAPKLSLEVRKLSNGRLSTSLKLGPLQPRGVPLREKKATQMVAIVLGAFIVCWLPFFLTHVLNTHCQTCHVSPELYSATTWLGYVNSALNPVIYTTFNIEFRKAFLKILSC

Target: D(3) dopamine receptor (Homo sapiens) (UniProt P35462)
Test: qHTS of D3 Dopamine Receptor Antagonist: qHTS
Details: D3R cells, DiscoveRx beta-arrestin luminescence, antagonist mode; active compounds read low
Method in brief: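 Cells expressing the human receptor were seeded at 1500 cells/well, incubated overnight at 37 degrees C in 5% CO2, then exposed to library compounds with dopamine controls for 90 minutes at 37 degrees C before luminescent detection.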
% is set by controls: 0 for no effect and ±100 for the full control effect.

Max response, negative = inhibition, inconclusive:
O=C(O)CC/C(=C\c1ccccc1[N+](=O)[O-])c1nc2ccccc2s1 -30.7%, CCN(CC)CCN(C(=O)/C=C/c1cccs1)c1nc2ccc(Cl)cc2s1 -41.9%, Cc1cc(C(=O)CCC(=O)N2CCN(S(=O)(=O)c3ccccc3)CC2)c(C)s1 -30.8%, COc1ccc(C(=O)Nn2c(SCc3ccc([N+](=O)[O-])cc3)nc3ccccc3c2=O)cc1 -46%, CCCOc1ccc(CNC(=O)c2ccc3nc(N4CCOCC4)sc3c2)cc1 -36%, O=C(Cc1coc2cc3c(cc12)CCC3)OCC(=O)N1CCCC1=O -39.6%, COc1cc(C(=O)/C=C/c2cccnc2)ccc1O -49.3%, Cc1nc2ccc(C(=O)O)cc2c2c1CC(C)S2 (centres undefined) -40.8%, CCN(CC)S(=O)(=O)c1ccc(-c2cn3ccccc3n2)cc1 -36.7%, Cc1ccc(-c2cc(-c3ccccc3C)[nH]n2)c(O)c1 -32.7%, Cc1ccc(S(=O)(=O)CCC(=O)OCC(=O)NNC(=O)c2ccc([N+](=O)[O-])cc2)cc1 -31.9%, COC(=O)c1ccc(CNC(=O)COc2ccccc2Br)o1 -36.9%, CC(C)(C)C(=O)Cn1c(=N)n(Cc2ccccc2Cl)c2ccccc21 -31%, O=C(NCCC1=CCCCC1)c1ccc(CN2CCOCC2)cc1 -34.1%, CC(=O)Nc1ccc(C(=O)COC(=O)CCS(=O)(=O)c2ccccc2)cc1 -34.6%, O=C(/C=C/c1cn(CC(O)CN2CCCCC2)c2ccccc12)c1ccccc1 (centres undefined) -31.7%, CCC(=O)OCc1c(C(F)(F)F)nn(C)c1Sc1ccc(Cl)cc1 -36.9%, O=S(=O)(Nc1ccc(C(O)(C(F)(F)F)C(F)(F)F)cc1)c1cccc2ccccc12 -47%, COCCCn1[nH]c2c3c(ccc2c1=O)C(=O)c1ccccc1C3=O -31.8%, O=C1OCc2cccc([N+](=O)[O-])c21 -41.7%, O=C(CCCN1C(=O)/C(=C/c2ccccc2)SC1=S)Nc1ccccc1O -41.3%, CC(C)CN(CC(C)C)C1=N/C(=C\c2ccco2)C(=O)N1c1ccccc1 -35.1%, O=C(c1cc2nc(-c3cccs3)cc(C(F)(F)F)n2n1)N1CCCc2ccccc21 -39.7%, C/C(=N\NC(=O)c1ccccc1)c1cc2cc([N+](=O)[O-])ccc2oc1=O -32.6%, O=C1CC(c2ccccc2)Oc2ccccc21 (centres undefined) -41.7%, O=c1cc(-c2ccc(Br)cc2)[nH][nH]1 -33.8%, CCOC(=O)c1ccc(N2C(=O)CC(SCC(N)C(=O)OCC)C2=O)cc1 (centres undefined) -32.7%, CCOc1ccc(C(=O)c2ccncc2)cc1 -43.1%, CC(C)Cc1nnc(NC(=O)C2=COCCO2)s1 -30.4%, O=C(C1=C[C@H](c2csc3ccccc23)C[C@H](OCCCCO)O1)N1CCN(Cc2ccc3c(c2)OCO3)CC1 -34.4%, COC(=O)C1=C(C)NC(=O)/C1=C/c1ccc(CNS(=O)(=O)c2ccc(C)cc2)o1 -31.5%, Cc1cc(C(=O)N2CCN(C/C=C/c3ccccc3)CC2)no1 -36.4%, Cc1ccc(Cl)cc1N1CCN(S(=O)(=O)c2c(C)[nH]c(C)c2C(=O)N2CCCC2)CC1 -34.3%, CC(C)(C)c1ccc(C(=O)OCc2c(-c3ccccc3)ncc3ccccc23)cc1 -36.5%, COc1ccc(CCN(C)C/C=C/c2ccccc2)cc1OC -34.5%, O=C(NCc1cccnc1)c1ccccc1NS(=O)(=O)c1ccc(Br)cc1 -36%, Cc1noc(NS(=O)(=O)c2ccc(NC(=O)c3ccc(F)cc3)cc2)c1C -31.1%, O=C1N=C2SCCN2/C1=C\c1ccc(Cl)cc1 -42.3%, COc1ccccc1N1CCN(C2CCCN(Cc3cc(F)cc(F)c3)C2)CC1 (centres undefined) -34%, COc1ccc(-c2nc(-c3ccccc3)[nH]c(=O)c2C#N)cc1 -42.2%, CCCN1C(=O)/C(=C/c2ccc(C)o2)SC1=Nc1ccc(OC)cc1 -49.1%, Cc1cc(OCCn2ccnc2)ccc1C(C)C -32.1%, COc1ccc(C(=O)N2CCCc3ccccc32)cc1OC -33.7%, CCN(CC)CCCNC(=O)c1cn(C)c2ccc(S(=O)(=O)N(C)C)cc2c1=O -35.2%, O=C(NC(c1ccc(Cl)cc1)c1cnccn1)C1CCN(Cc2cccc(C(F)(F)F)c2)CC1 (centres undefined) -43.3%, Cc1c(F)cccc1NS(=O)(=O)c1ccc(OCCNS(C)(=O)=O)cc1 -42.1%, CN(C)C(=O)CSc1nnc(-c2cccnc2)n1-c1ccccc1 -30.3%, CCCC(c1nnnn1CCc1ccccc1)N1CCN(C2CCCC2)CC1 (centres undefined) -49.3%, O=C(COC(=O)CCc1c[nH]c2ccccc12)Nc1ccccc1 -45.2%, Cc1ccc(S(=O)(=O)N2CCOCC2)cc1C(=O)OCC(=O)Nc1ccc2c(c1)OCO2 -31.8%, CC(C)n1cnc2c(Nc3cccc(F)c3)nc(NCCO)nc21 -36.8%, CC(C)NC(=O)C1(O)c2ccccc2NC(=O)N1c1ccc(Cl)c(Cl)c1 (centres undefined) -48.2%

Max response, negative = inhibition, inactive:
C[C@@H]1COC(=O)[C@H](Cc2ccc(F)cc2)C/C=C\C[C@@H](CC(=O)NCCO)C(=O)N1 9.93%, CCNC(=O)C1(C)CCCN(C(=O)c2sc(-c3ccccc3)nc2C)C1 (centres undefined) -22.8%, Cc1nc2sc(C(=O)O)c(N)c2c2c1COC(C)(C)C2 22.7%, CN(Cc1cccs1)C(=O)c1cc(S(=O)(=O)N2CCOCC2)ccc1N1CCCC1 -7.51%, Cc1cc(NC(C)c2ccccc2)n2ncc(-c3ccccc3)c2n1 (centres undefined) 37.9%, O=[N+]([O-])c1cc(F)cc(F)c1Nc1cc(F)cc(F)c1 11.1%, CCOc1ccc(NC(=O)COC(=O)c2ccc3c(c2)C(=O)N(CCc2ccccc2)C3=O)cc1 5.36%, Cc1cc(C)c(S(=O)(=O)N2CCCOC2CNC(=O)C(=O)NCCc2c[nH]c3ccccc23)c(C)c1 (centres undefined) 12.4%, CCN1CCN(c2ccc(NC(=O)CCc3c(C)nc4c(-c5ccc(F)cc5)c(C)nn4c3C)cc2)CC1 -18.5%, O=C(Cc1cccs1)Nc1nc(-c2ccccc2)cs1 39.8%, COc1ccc(C2NC(=S)NC(C)=C2C(=O)c2ccccc2)cc1OC (centres undefined) -1.86%, Fc1ccccc1OCCCCCCN1CCCC1 -3.86%, Cc1cc(=O)[nH]c(SCC(=O)C23CC4CC(CC(C4)C2)C3)c1C#N 37.2%, O=C(NCCc1csc(-c2ccc(C(F)(F)F)cc2)n1)c1cccs1 16.9%, COc1ccc(S(=O)(=O)N2CCN(c3nc(C)cc(C)n3)CC2)cc1 -19.6%, CCC(=O)N1CCC1(C)C(=O)Nc1cccc2c1CCCC2 (centres undefined) 13.4%, COC(=O)c1ccncc1N -11%, Cc1ccc2c(c1)c1nc3ccccc3nc1n2C 8.35%, CC(=O)c1cccc(N(CC(=O)Nc2cc(C)cc(C)c2)S(C)(=O)=O)c1 -4.89%, O=S(c1ccccc1)c1ccccc1 -11.6%, Cc1cccc(N2CCN(C(=S)NC3CCCCC3)CC2)c1C -15%, COc1ccc2oc(C(=O)N(C)Cc3ccc(OC(F)F)cc3)c(C)c2c1 -6.03%, Cc1ccc(C(NC(=O)N2CCOCC2)=C(Cl)Cl)cc1F -19.4%

Max response, negative = inhibition, active:
Cc1ccc(C(C)C)c(OCCCN2CCc3ccccc3C2)c1 -84.8%, O=S(=O)(Nc1nc(-c2sccc2Cl)cs1)c1cc(Cl)ccc1Cl -85.8%, O=S(=O)(c1cccs1)N1CCCc2cccc(O)c21 -72.7%, Cn1c(CN2CCCCC2)nc2cc(NS(=O)(=O)c3ccc(Cl)cc3)ccc21 -64.8%, COc1cnc(-c2ccccn2)nc1Sc1ccccc1Cl -68.1%, O=C(CN1CCN(c2ccccc2F)CC1)c1ccc2cc[nH]c2c1 -63.3%, CCc1ccc(S(=O)(=O)Nc2ccc(N3CCN(C)CC3)cc2)cc1 -82.1%, Cc1ccc(C(=O)N/N=C\c2cc3c(cc2Br)OCO3)s1 -65.5%, CC(=O)Nc1cccc(NC(=O)c2ccccc2Cl)c1 -54.6%, OC1(c2ccc(Cl)cc2)CCN(Cc2cn[nH]c2-c2ccc(F)cc2)CC1 -97.6%, Nc1ncnc2c1ncn2[C@@H]1O[C@H](CNC(=O)[C@H](N)Cc2cscn2)[C@@H](O)[C@H]1O -83.8%, COCCn1c(C)cc(C(=O)COC(=O)c2ccc3ncsc3c2)c1C -55.4%, COc1cccc(Oc2cc(NN3CCCCC3)c([N+](=O)[O-])cc2[N+](=O)[O-])c1OC -64.7%, Cc1c(CN2CCN(c3cccc(C(F)(F)F)c3)CC2)c(=O)n(-c2ccccc2)n1C -76.2%
